PubChem BioAssay AID504793, Drosophila RNAi Screening Center, 2011
The screen tested about 23,000 reagents; below is an unselected part of those that have a named target and a result. Over the whole deposit, 62 (0.27%) were called active. 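Calls come from follow-up tests whose scores are not deposited, so confirmed genes may have low counts here; counts are not normalised per plate.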 Raw values vary from plate to plate and are shown uncorrected. The numbers tell different reagents against one gene apart. Names joined by + are all predicted targets of the reagent.

- Test: 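Whole-genome screen for parts of the DNA damage checkpoint at G2/M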 (primary screen)
- Cell system: Drosophila S2R+ cells
- Reagents: long dsRNA against Drosophila genes, about 0.25 µg dsRNA per well
- Time to read-out: 4 days of dsRNA, then 4 hours of drug before read-out
- Challenge: doxorubicin 0.5 µM for 4 hours to cause double-strand breaks, in cells also given a low, harmless dose of dsRNA against nbs to sensitise the assay
- Measurement: 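Mitotic index as the number of phospho-histone H3-positive cells in each well following doxorubicin, given as raw counts without normalisation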
- Scale: mitotic cells: higher = more cells in mitosis, weaker G2 arrest
- Active means: 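Genes are called active only when high mitotic counts were reproduced with independent dsRNAs and mitosis was checked for delay without damage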
- Calls: active = confirmed in follow-up tests; inactive = not confirmed

predicted target | dsRNA no. | mitotic cells, replicate 1 | call
Arpc3A (Actin-related protein 2/3 complex, subunit 3A) | 1 | 7 | inactive
Arpc3A (Actin-related protein 2/3 complex, subunit 3A) | 2 | 7 | inactive
LManI (Lysosomal alpha-mannosidase I) | 1 | 4 | inactive
LManI (Lysosomal alpha-mannosidase I) | 2 | 11 | inactive
Gr22f (Gustatory receptor 22f) | 1 | 9 | inactive
Gr22f (Gustatory receptor 22f) | 2 | 3 | inactive
CG14957 | 1 | 7 | inactive
Gr66a (Gustatory receptor 66a) | 1 | 6 | inactive
Cpr47Eg (Cuticular protein 47Eg) | 1 | 3 | inactive
CG12983 | 1 | 3 | inactive
CG31704 | 1 | 10 | inactive
RnpS1 (RNA-binding protein S1) | 1 | 4 | inactive
CG3999 | 1 | 3 | inactive
CG3999 | 2 | 11 | inactive
Dys (Dystrophin) | 1 | 5 | inactive
Dys (Dystrophin) | 2 | 12 | inactive
Dys (Dystrophin) | 3 | 7 | inactive
Dys (Dystrophin) | 4 | 10 | inactive
Dys (Dystrophin) | 5 | 7 | inactive
Dys (Dystrophin) | 6 | 11 | inactive
Dys (Dystrophin) | 7 | 5 | inactive
bocks (bocksbeutel) | 1 | 11 | inactive
mei-41 (meiotic 41) | 1 | 16 | inactive
CG15408 | 1 | 3 | inactive
CG17636 | 1 | 7 | inactive
Gr98b (Gustatory receptor 98b) | 1 | 6 | inactive
Sirt7 (Sirtuin 7) | 1 | 5 | inactive
Sirt7 (Sirtuin 7) | 2 | 1 | inactive
CG31088 | 1 | 11 | inactive
CG31088 | 2 | 7 | inactive
CG12301 | 1 | 6 | inactive
CG11147 | 1 | 6 | inactive
CG13028 | 1 | 3 | inactive
Ir100a (Ionotropic receptor 100a) | 1 | 17 | inactive
Ir100a (Ionotropic receptor 100a) | 2 | 2 | inactive
CG16800 | 1 | 2 | inactive
CG16800 | 2 | 10 | inactive
CG14960 | 1 | 8 | inactive
PEK (pancreatic eIF-2alpha kinase) | 1 | 6 | inactive
MTF-1 (Metal response element-binding Transcription Factor-1) | 1 | 11 | inactive
MTF-1 (Metal response element-binding Transcription Factor-1) | 2 | 10 | inactive
CCT8 (Chaperonin containing TCP1 subunit 8) | 1 | 191 | inactive
CCT8 (Chaperonin containing TCP1 subunit 8) | 2 | 110 | inactive
Ddrgk1 (DDRGK domain containing 1) | 1 | 7 | inactive
Ddrgk1 (DDRGK domain containing 1) | 2 | 4 | inactive
CG32075 | 1 | 9 | inactive
CG32075 | 2 | 4 | inactive
CG9886 | 1 | 5 | inactive
CG9886 | 2 | 4 | inactive
Ldaf1 (Lipid droplet assembly factor 1) | 1 | 9 | inactive
Ldaf1 (Lipid droplet assembly factor 1) | 2 | 12 | inactive
eIF4E1 (eukaryotic translation initiation factor 4E1) | 1 | 11 | inactive
eIF4E1 (eukaryotic translation initiation factor 4E1) | 2 | 7 | inactive
CG4854 | 1 | 13 | inactive
CG4854 | 2 | 7 | inactive
CG33458 | 1 | 7 | inactive
CG6900 (retired record) | 1 | 5 | inactive
muskelin | 1 | 1 | inactive
Pcf11 (Pcf11 cleavage and polyadenylation factor subunit) | 1 | 4 | inactive
CG3868 | 1 | 3 | inactive
Rbf (Retinoblastoma-family protein) | 1 | 12 | active
Rbf (Retinoblastoma-family protein) | 2 | 6 | inactive
CG34408 | 1 | 6 | inactive
CG34408 | 2 | 9 | inactive
CG34408 | 3 | 8 | inactive
CG34408 | 4 | 1 | inactive
CG17977 | 1 | 7 | inactive
Syt14 (Synaptotagmin 14) | 1 | 4 | inactive
cutlet | 1 | 4 | inactive
cutlet | 2 | 3 | inactive
Mur18B (Mucin related 18B) | 1 | 4 | inactive
Mur18B (Mucin related 18B) | 2 | 3 | inactive
CG9514 | 1 | 15 | inactive
CG9514 | 2 | 6 | inactive
CG9514 | 3 | 9 | inactive
aay (astray) | 1 | 6 | inactive
CG9920 | 1 | 6 | inactive
Nipped-B | 1 | 9 | inactive
Nipped-B | 2 | 7 | inactive
Or83c (Odorant receptor 83c) | 1 | 7 | inactive
CG8531 | 1 | 4 | inactive
Sobp (Sine oculis-binding protein) | 1 | 7 | inactive
Sobp (Sine oculis-binding protein) | 2 | 5 | inactive
CG7987 | 1 | 6 | inactive
CG7987 | 2 | 13 | inactive
eIF3d2 (eukaryotic translation initiation factor 3 subunit d2) | 1 | 4 | inactive
pes (peste) | 1 | 6 | inactive
pes (peste) | 2 | 3 | inactive
CG8219 | 1 | 2 | inactive
CG8219 | 2 | 9 | inactive
GstD9 (Glutathione S transferase D9) | 1 | 7 | inactive
GstD9 (Glutathione S transferase D9) | 2 | 7 | inactive
CG15040 | 1 | 18 | inactive
CG15040 | 2 | 8 | inactive
CG15040 | 3 | 4 | inactive
CG31141 | 1 | 17 | inactive
CG31141 | 2 | 4 | inactive
CG15475 | 1 | 2 | inactive
CG15475 | 2 | 7 | inactive
CG31008 | 1 | 13 | inactive
CG31008 | 2 | 3 | inactive
CG5597 | 1 | 7 | inactive
ATP8A (ATPase 8A) | 1 | 6 | inactive
ATP8A (ATPase 8A) | 2 | 6 | inactive
ATP8A (ATPase 8A) | 3 | 6 | inactive
CG14561 | 1 | 4 | inactive
ninaC (neither inactivation nor afterpotential C) | 1 | 7 | inactive
ninaC (neither inactivation nor afterpotential C) | 2 | 5 | inactive
CG32182 | 1 | 14 | inactive
CG32182 | 2 | 9 | inactive
CG34286 | 1 | 10 | inactive
Samtor (S-adenosylmethionine sensor upstream of TORC1) | 1 | 5 | inactive
Samtor (S-adenosylmethionine sensor upstream of TORC1) | 2 | 9 | inactive
cno (canoe) | 1 | 5 | inactive
cno (canoe) | 2 | 82 | inactive
cno (canoe) | 3 | 5 | inactive
cno (canoe) | 4 | 12 | inactive
Ada3 (transcriptional Adaptor 3) | 1 | 9 | inactive
Ada3 (transcriptional Adaptor 3) | 2 | 11 | inactive
Shmt (Serine hydroxymethyl transferase) | 1 | 11 | inactive
Nuak (Nuak family kinase) | 1 | 4 | inactive
Nuak (Nuak family kinase) | 2 | 9 | inactive
Nuak (Nuak family kinase) | 3 | 2 | inactive
Gr28a (Gustatory receptor 28a) | 1 | 2 | inactive
Doc2 (Dorsocross2) | 1 | 10 | inactive
Doc2 (Dorsocross2) | 2 | 5 | inactive
BI-1 (Bax Inhibitor-1) | 1 | 4 | inactive
Gr59f (Gustatory receptor 59f) | 1 | 9 | inactive
Gr59f (Gustatory receptor 59f) | 2 | 13 | inactive
l(2)k09913 (lethal (2) k09913) | 1 | 7 | inactive
Det (Deterin) | 1 | 3 | inactive
CG8086 | 1 | 4 | inactive
CG8086 | 2 | 5 | inactive
CG8086 | 3 | 11 | inactive
CG13796 + CG31904 | 1 | 10 | inactive
dysf (dysfusion) | 1 | 17 | inactive
dysf (dysfusion) | 2 | 12 | inactive
dysf (dysfusion) | 3 | 12 | inactive
ccb (central complex broad) | 1 | 6 | inactive
CG17118 | 1 | 6 | inactive
